Measured values as given in patent US12065483.
No constants are given. Whether binding was seen depends on the method and setting. A result given as binding can be weak or reduced; the word gives no strength.

Tests used:
[1] = target: Influenza Hemagglutinin A (influenza A virus); experiment: ELISA of selected clones
[2] = target: Influenza Hemagglutinin B (influenza B virus); experiment: ELISA of selected clones

Binder	binding [1]	binding [2]
F1-04 (VHH) VHH: QVQLVESGGGLVQVGGSLRLSCAASERPSSNYAMGWFRQAPGKEQEFVAAIYWSGGGTAYGDSVKGRFTISKDNAKNTVYLQMNDLKPEDTGMYYCTTDHYGSWSYEYGSWGQGTQVTVSS	binds	binds
F2-02 (VHH) VHH: QVQLVESGGGLVQAGGSLRLSCAASGRTFRSFAMGWFRQAPGKEREFVATISWWSNNTYYADSVKGRFTISRDIAKNTVYLQMNSLKPEDTAVYYCAADLGPWLTAGQYDYWGQGTQVTVSS	binds	binds
F2-20 (VHH) VHH: QVQLVESGGGLVQAGGSLRLSCAASGRTFSRYAMGWFRQAPGKEREFVARISWSGDITYYADSVKGRFTISRDNAKNTVYLQMNSLKPEDTAVYYCAADAILRTRPPYESDYWGQGTQVTVSS	binds	binds
F2-24 (VHH) VHH: QVQLVESGGGLVQAGGSLRLSCASSGHTFNSYVMGWFRQAPGKEREFVAAIRPSGVSTYYADSVKGRFTISRDNAKNTVSLEMNSLKPEDTAVYYCAGDRDHSMMAVRRLSSYRQWGRGTQVTVSS	binds	binds
